# Measured values taken from PMC9508819, “Rbp95 binds to 25S rRNA helix H95 and cooperates with the Npa1 complex during early pre-60S particle maturation”.
# Sequences of proteins named here, by UniProt entry; tags and fusion partners are left off.
# UniProt P34241: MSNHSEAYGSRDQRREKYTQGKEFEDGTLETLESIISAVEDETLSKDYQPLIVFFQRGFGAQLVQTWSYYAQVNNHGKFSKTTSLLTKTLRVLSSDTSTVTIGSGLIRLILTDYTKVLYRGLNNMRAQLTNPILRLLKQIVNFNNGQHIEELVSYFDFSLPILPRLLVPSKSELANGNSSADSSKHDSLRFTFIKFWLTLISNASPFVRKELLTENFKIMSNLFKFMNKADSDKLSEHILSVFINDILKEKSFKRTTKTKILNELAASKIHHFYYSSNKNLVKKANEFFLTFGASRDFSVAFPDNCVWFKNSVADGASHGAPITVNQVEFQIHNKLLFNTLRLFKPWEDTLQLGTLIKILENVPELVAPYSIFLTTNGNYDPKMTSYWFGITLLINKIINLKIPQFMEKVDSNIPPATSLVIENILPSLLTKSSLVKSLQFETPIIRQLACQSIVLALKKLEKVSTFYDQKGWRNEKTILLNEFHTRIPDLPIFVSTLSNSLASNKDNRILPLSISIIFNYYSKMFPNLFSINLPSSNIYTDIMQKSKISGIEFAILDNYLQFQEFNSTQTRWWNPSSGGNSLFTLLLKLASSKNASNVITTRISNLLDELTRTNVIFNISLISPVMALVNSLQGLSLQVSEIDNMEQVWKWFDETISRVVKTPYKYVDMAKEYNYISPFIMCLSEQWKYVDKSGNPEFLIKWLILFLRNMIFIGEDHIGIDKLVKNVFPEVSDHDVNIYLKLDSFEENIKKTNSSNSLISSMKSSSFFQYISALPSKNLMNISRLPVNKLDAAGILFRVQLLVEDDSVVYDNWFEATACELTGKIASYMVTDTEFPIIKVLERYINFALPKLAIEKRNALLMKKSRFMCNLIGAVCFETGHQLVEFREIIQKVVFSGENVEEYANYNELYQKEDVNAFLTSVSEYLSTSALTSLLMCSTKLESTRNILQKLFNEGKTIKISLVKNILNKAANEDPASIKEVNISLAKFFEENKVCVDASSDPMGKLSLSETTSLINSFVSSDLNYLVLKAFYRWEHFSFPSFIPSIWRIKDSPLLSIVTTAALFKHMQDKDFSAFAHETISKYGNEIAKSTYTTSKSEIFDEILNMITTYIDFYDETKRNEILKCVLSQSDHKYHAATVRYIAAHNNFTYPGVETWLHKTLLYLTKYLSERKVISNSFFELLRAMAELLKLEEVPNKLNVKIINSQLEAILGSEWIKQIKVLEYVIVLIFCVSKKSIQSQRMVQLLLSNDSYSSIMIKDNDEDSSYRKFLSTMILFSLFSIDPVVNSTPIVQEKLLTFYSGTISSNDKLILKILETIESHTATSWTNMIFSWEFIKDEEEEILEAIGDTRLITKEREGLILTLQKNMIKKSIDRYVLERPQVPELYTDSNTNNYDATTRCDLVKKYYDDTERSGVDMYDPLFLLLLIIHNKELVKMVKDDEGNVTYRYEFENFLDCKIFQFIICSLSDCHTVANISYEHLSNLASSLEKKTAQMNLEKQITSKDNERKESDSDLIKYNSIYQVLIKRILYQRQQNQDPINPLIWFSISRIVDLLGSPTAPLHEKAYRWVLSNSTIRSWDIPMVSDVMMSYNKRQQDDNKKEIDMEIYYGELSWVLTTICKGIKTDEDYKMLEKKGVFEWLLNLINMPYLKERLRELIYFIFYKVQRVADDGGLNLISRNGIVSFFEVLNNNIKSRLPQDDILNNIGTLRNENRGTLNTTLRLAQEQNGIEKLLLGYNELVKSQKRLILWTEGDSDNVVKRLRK
# UniProt P14126: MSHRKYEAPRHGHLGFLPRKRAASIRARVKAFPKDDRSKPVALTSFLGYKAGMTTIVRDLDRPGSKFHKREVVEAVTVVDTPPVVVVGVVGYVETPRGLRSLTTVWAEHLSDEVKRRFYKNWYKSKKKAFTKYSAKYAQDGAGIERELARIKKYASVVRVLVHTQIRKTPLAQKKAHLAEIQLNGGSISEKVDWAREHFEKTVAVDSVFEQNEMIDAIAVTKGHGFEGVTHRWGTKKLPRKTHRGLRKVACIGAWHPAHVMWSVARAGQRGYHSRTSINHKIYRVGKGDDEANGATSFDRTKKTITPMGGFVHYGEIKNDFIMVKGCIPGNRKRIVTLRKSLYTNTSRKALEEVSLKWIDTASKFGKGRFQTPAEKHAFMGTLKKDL
# These are yes or no findings as the source states them, for the method shown. In cells and extracts the contact can be indirect. Some results given as binding are weak or reduced against the parent protein; the word gives no strength.
# T1: Nsa1-TAP (S. cerevisiae) (UniProt P53136)
# T1 sequence: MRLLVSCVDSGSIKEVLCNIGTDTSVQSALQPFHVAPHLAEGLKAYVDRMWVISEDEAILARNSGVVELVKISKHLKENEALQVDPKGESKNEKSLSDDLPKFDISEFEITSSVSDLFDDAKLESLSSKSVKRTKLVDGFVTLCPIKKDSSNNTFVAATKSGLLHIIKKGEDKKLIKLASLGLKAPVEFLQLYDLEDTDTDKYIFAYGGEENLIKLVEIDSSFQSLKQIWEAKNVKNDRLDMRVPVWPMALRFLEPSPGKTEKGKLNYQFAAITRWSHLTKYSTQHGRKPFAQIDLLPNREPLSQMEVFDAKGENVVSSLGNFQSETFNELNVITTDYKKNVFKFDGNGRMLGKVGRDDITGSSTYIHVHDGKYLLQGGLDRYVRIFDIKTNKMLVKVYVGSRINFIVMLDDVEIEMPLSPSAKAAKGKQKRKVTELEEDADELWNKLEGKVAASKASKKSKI
# T2: Ssf1-TAP (S. cerevisiae) (UniProt P38789)
# T2 sequence: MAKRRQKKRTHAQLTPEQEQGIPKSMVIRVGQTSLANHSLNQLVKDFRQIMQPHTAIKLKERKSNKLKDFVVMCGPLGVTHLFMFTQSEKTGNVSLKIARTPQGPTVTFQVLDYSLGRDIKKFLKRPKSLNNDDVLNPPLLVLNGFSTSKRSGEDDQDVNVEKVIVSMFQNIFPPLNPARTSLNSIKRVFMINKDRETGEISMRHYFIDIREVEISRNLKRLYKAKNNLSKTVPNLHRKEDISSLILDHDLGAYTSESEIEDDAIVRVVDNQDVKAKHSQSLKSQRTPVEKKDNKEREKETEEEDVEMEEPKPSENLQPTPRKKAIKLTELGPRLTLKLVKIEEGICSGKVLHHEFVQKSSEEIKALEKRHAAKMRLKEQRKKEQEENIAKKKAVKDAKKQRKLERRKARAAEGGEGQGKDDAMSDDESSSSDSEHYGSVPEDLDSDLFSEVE
# T3: Noc2-TAP (S. cerevisiae) (UniProt P39744)
# T3 sequence: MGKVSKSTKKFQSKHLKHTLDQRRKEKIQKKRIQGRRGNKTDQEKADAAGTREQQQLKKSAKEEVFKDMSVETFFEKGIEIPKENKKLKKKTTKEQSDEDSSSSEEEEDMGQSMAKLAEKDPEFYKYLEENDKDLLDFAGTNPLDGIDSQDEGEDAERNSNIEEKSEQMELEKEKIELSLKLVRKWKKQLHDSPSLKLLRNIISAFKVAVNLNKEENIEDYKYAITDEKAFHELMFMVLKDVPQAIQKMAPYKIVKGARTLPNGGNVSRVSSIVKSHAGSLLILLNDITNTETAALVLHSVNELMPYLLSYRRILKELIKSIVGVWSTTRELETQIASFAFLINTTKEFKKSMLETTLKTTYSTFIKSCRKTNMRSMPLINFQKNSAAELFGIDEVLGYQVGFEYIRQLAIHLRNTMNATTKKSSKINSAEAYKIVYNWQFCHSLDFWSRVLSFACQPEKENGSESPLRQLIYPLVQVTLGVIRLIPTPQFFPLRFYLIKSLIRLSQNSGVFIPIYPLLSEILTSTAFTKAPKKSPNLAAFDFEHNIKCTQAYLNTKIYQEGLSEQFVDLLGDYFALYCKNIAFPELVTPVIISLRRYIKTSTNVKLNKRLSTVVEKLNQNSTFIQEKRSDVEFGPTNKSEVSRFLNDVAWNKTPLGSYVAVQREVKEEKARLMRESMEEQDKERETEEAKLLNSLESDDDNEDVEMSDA
# B1: Nhp2 (protein, UniProt P32495 1-156)
# chain: MGKDNKEHKESKESKTVDNYEARMPAVLPFAKPLASKKLNKKVLKTVKKASKAKNVKRGVKEVVKALRKGEKGLVVIAGDISPADVISHIPVLCEDHSVPYIFIPSKQDLGAAGATKRPTSVVFIVPGSNKKKDGKNKEEEYKESFNEVVKEVQAL
# B2: Nop1 (enzyme, UniProt P15646 1-327)
# chain: MSFRPGSRGGSRGGSRGGFGGRGGSRGGARGGSRGGFGGRGGSRGGARGGSRGGFGGRGGSRGGARGGSRGGRGGAAGGARGGAKVVIEPHRHAGVYIARGKEDLLVTKNMAPGESVYGEKRISVEEPSKEDGVPPTKVEYRVWNPFRSKLAAGIMGGLDELFIAPGKKVLYLGAASGTSVSHVSDVVGPEGVVYAVEFSHRPGRELISMAKKRPNIIPIIEDARHPQKYRMLIGMVDCVFADVAQPDQARIIALNSHMFLKDQGGVVISIKANCIDSTVDAETVFAREVQKLREERIKPLEQLTLEPYERDHCIVVGRYMRSGLKK
# B3: Dbp6 (enzyme, UniProt P53734 1-629)
# chain: MFASRFDPSQLTAPAASAPEGIVGTTPPAIVPLKRQATESDNEEYGSHQDSDESSNSSSEEDEDRMQVDYGASEEDSSEVEEEESKPSTHSTVLSRFKQTVSLQERLGASDIAESKEDEGIEDEAASTHQLKQIPQPEFVKNPMNLNTNSLQFKSTGWLNTEKIYYDNSLIKPFSDYANELEAKLLQNICKNFSTNTFPIQSIILDSILPVLNFTLNVSKRNFTRRIGDILVNAATGSGKTLAYSIPIVQTLFKRQINRLRCIIIVPTKLLINQVYTTLTKLTQGTSLIVSIAKLENSLKDEHKKLSNLEPDILITTPGRLVDHLNMKSINLKNLKFLIIDEADRLLNQSFQGWCPKLMSHLKTDKLDTLPGNVIKMIFSATLTTNTEKLNGLNLYKPKLFLKQTDKLYQLPNKLNEFNINIPTAKSVYKPLILLYSICQFMAHSPIAAKILIFVKSNESSIRLSKLLQLICESRSQSSVLKNLQNLAVSINSVNSNNSKAENKKIVANFSHHSESAGITILITTDIMSRGIDINDITQVINYDPPMSSQQYVHRVGRTARANELGSAYNLLVGRGERTFFDDLNKDLDRDGKSVQPLELDFTLLESDSELYTSSLESLKNYHNNTAQA
# What was measured:
# Nsa1-TAP (S. cerevisiae) = target: T1, Nsa1-TAP (S. cerevisiae); assay: co-IP; tandem-affinity purification from yeast lysate (IgG Sepharose, TEV elution, Calmodulin Sepharose, EGTA elution); 50 mM Tris-HCl pH 7.5, 100 mM NaCl, 1.5 mM MgCl2, 0.1% NP-40, 1 mM DTT; eluates analysed by western blotting; for Figure 8C from wild-type and Δrbp95 strains
# Ssf1-TAP (S. cerevisiae) = target: T2, Ssf1-TAP (S. cerevisiae); assay: as above
# Noc2-TAP (S. cerevisiae) [1] = target: T3, Noc2-TAP (S. cerevisiae); assay: as above
# Noc2-TAP (S. cerevisiae) [2] = target: T3, Noc2-TAP (S. cerevisiae); assay: co-IP; Noc2-TAP purification from wild-type control and GAL1-RPL3, GAL1-NPA1 and GAL1-SSF1 Δssf2 strains grown in galactose (YPG) or shifted to glucose (YPD) for about 18 h; western blotting (Supplementary Figure S8)
# Noc2-TAP (S. cerevisiae) [3] = target: T3, Noc2-TAP (S. cerevisiae); assay: as above; remark: listed apart in the source
Molecule,binding (Nsa1-TAP (S. cerevisiae)),binding (Ssf1-TAP (S. cerevisiae)),binding (Noc2-TAP (S. cerevisiae) [1]),binding (Noc2-TAP (S. cerevisiae) [2]),binding (Noc2-TAP (S. cerevisiae) [3])
Npa1 (from UniProt P34241 1-1764),no binding,binds,binds,binds,–
Rpl3 (from UniProt P14126 1-387),–,–,binds,binds,–
B1,binds,–,binds,–,–
B2,binds,–,–,–,–
B3,–,–,–,–,binds
